From patent US8466161B2, “Hydroxamate derivative, a production method for the same, and a pharmaceutical composition comprising the same” (Chong Kun Dang Pharmaceutical Corp., priority 2009, dated 2013) come the findings set out here.

In general, IC50 refers to the concentration that gives 50% inhibition.

The test system of this experiment is HL60 cell line. Description: Inhibitory effect on growth of HL60 cell line (MTT). As to conditions: Homo sapiens, HL-60, 72 h, 3 days culture. Format: cell-based. On the procedure:
In the culture of HL60 cells, 10% FBS-containing RPMI1640 medium was used Each of test substances was serially diluted in DMSO to a concentration of 10 mg/ml and serially diluted in PBS to a final concentration ranging from 100 μg/ml to 0.03 μg/ml. 20 μl (micro-liter) of each of the serially diluted test substances and 180 μl (micro-liter) of a medium containing 60×10^4 cells/ml were added to a 96-well plate and cultured under conditions of 37° C. and 5% CO2 for 3 days. After completion of the culture, 50 μl (micro-liter) of a solution of 1.25 mg/ml MTT (3-(4,5-dimethylthiazol-2-yl)-2,5-diphenyltetrazolium bromide) in PBS was added to each well of the plate and incubated at 37° C. for 3 hours. The formed formazan crystal was dissolved in 150 μl (micro-liter) of DMSO, and the absorbance at 570 nm was measured.

`O=C(CCCCCCC(=O)Nc1ccccc1)NO` [SAHA, vorinostat, reference compound] returned an IC50 of 0.6 to 1 µM.
